The numbers were not newly measured in PMC10301896 (Pharmaceutics, 2023), which cites them from elsewhere.

Read-outs that look alike come from different tables or passages of the source.

For the data set the following is noted: cited from earlier work.

In the case of `O=C(O)c1cn(C2CC2)c2cc(N3CCNCC3)c(F)cc2c1=O` [CFX, ciprofloxacin], the “Fecal recovery, % of the dose” value is given as “approximately 15%”. Further, where the note is “after the 100-mg intravenous dose”, the 24-h urinary excretion was 42.2%. In addition, the 24-h urinary excretion (after the 500-mg twice-daily oral dose during steady state) is given as 42.5%.
